# This is one part of the list. Shown are side measurements of this screen, not its main read-out; they come without a call. Most of these compounds were active or inconclusive in the main read-out, so they are no random draw. Potencies come from curve fits of mixed quality, noted in brackets.
# Test: IkB Signaling
# Details: ABC-DLBCL IkBa-CBG/CBR dual luciferase ratio (green luciferase fused to IkBa over red control in OCI-Ly3 lymphoma cells), 4 h
# In short: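 Curves were fitted separately to fusion (green), unfused (red) and ratio luminescence, then classed by r2, magnitude and activity. Cells: OCI-Ly3, 4 h compound plus doxycycline at 37C; 10 uM MG-132 defined full response.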
# [1] = measured here: control luc red channel unless noted
smiles,measurement,setting,value
Fc1ccc(Nc2ncnc3onc(-c4cccc(Cl)c4)c23)c(F)c1,AC50,[1],"2.51 µM [falling, full curve]"
Cc1cc(C)cc(NC(=O)Cn2cc(S(=O)(=O)NC(C)(C)C)c(S(=O)(=O)NC(C)(C)C)c2)c1,AC50,[1],"25.1 µM [falling, partial curve]"
CC(C)c1nc(SCC(=O)N2CCN(c3ccccc3)CC2)c2c(=O)n(C)c(=O)n(C)c2n1,AC50,[1],"2.51 µM [falling, full curve, poor fit]"
Cc1ccc(S(=O)(=O)Nc2cccc3ncccc23)s1,AC50,[1],"794 nM [rising, full curve] [measured here: IkB-luc green channel]"
COc1cc(OC)c(/C=C2/C(=O)Nc3ccccc32)c(OC)c1,AC50,[1],"2 µM [rising, full curve] [measured here: IkB-luc green channel]"
CCN1CCN(Cc2nc3cc(NC(=O)c4cc(OC)c(OC)c(OC)c4)ccc3n2CC)CC1,AC50,[1],"25.1 µM [falling, single point]"
COc1ccc(S(=O)(=O)n2nc(-c3ccco3)nc2NCc2ccc(N(C)C)cc2)cc1,AC50,[1],"10 µM [falling, partial curve]"
Cc1cccnc1NC(=O)c1c(O)c2ccccc2n(C)c1=O,AC50,[1],"10 µM [falling, partial curve]"
CCc1ccccc1NC(c1nnc(-c2cccc(F)c2)o1)c1ccc(F)cc1Cl (stereo not given),AC50,[1],"25.1 µM [falling, partial curve]"
Cn1cccc1-c1nc2ccc(NC(=O)c3cccs3)cc2[nH]1,AC50,[1],"12.6 µM [falling, partial curve]"
Cc1ccc2scc(N3CCc4ccccc4C3)c(=O)c2c1,AC50,[1],"0.316 µM [falling, partial curve]"
COc1ccccc1CN(CC(=O)NCc1ccco1)C(=O)CNS(=O)(=O)c1ccc(C)cc1,AC50,[1],"12.6 µM [falling, partial curve]"
COc1cc(OC)cc(-c2nc3nc(C)c(CCC(=O)Nc4ccc(C)c(C)c4)c(C)n3n2)c1,AC50,[1],"10 µM [falling, partial curve]"
Cc1cc(-c2nc3ncccc3o2)ccc1NC(=O)COc1ccccc1C,AC50,[1],"39.8 µM [rising, single point]"
Cc1ccc2occ(CC(=O)N(Cc3ccc(Cl)cc3)C3CCS(=O)(=O)C3)c2c1 (stereo not given),AC50,[1],"25.1 µM [falling, partial curve]"
Cn1cc(C2=C(c3ccc(Cl)cc3Cl)C(=O)NC2=O)c2ccccc21,AC50,[1],"39.8 µM [falling, partial curve]"
O=C(Cc1ccccc1)NC1CC(=O)N(c2ccccc2)C1 (stereo not given),AC50,[1],"7.94 µM [falling, single point]"
Cc1ccc(-c2noc(CNS(=O)(=O)c3ccc(F)cc3)n2)cc1,AC50,[1],"39.8 µM [falling, single point]"
COc1ccccc1N1CCN(C(=O)CN2C(=O)COc3ccc(S(=O)(=O)N4CCCCCC4)cc32)CC1,AC50,[1],"31.6 µM [falling, single point]"
Cc1c(NC(=O)c2cc(-c3ccc(F)cc3)on2)c(=O)n(-c2ccccc2)n1C,AC50,[1],"5.01 µM [falling, partial curve]"
CCN(CC)c1ccc(NC(=O)c2cnc3c(-c4ccccc4)c(C)nn3c2C)c(C)c1,AC50,[1],"39.8 µM [falling, single point]"
Clc1cccc(-c2nc(-c3ccccn3)no2)c1,AC50,[1],"10 µM [falling, partial curve]"
CCOC(=O)c1cc2c(=O)n3ccccc3nc2n(C(C)C)c1=NC(=O)c1cc2ccccc2o1,AC50,[1],"31.6 µM [falling, single point]"
COc1ccc(CNC(=O)CN2C(=O)COc3ccc(S(=O)(=O)Nc4ccccc4)cc32)cc1,AC50,[1],"31.6 µM [falling, single point]"
O=C(Nc1ccc(F)c(F)c1)c1cc(S(=O)(=O)NC2CCCCCC2)ccc1F,AC50,[1],"15.8 µM [falling, partial curve]"
Cn1c2ccccc2c2c(C(=O)N3CCN(c4ccccn4)CC3)cn(C3CCCC3)c(=O)c21,AC50,[1],"15.8 µM [falling, partial curve]"
CNC(=O)c1c(NC(=O)c2ccc(S(=O)(=O)N3CCCCC3)cc2)sc2c1CCC2,AC50,[1],"12.6 µM [falling, partial curve]"
CCCCN(CCCC)CCNC(=O)Cn1nc(C)n2c(cc3sccc32)c1=O,AC50,[1],"0.1 µM [falling, partial curve, poor fit]"
CC(C)c1ccc(NC(=O)CS(=O)(=O)c2cccc3nsnc23)cc1,AC50,[1],"1.58 µM [rising, full curve, poor fit]"
CC(C)(C)c1ccc(C(=O)N2CCC(c3nc(-c4ccc(S(=O)(=O)N5CCCC5)cc4)no3)CC2)cc1,AC50,[1],"25.1 µM [falling, single point]"
CCOc1ccc(-c2cc3c(=O)n(Cc4nc(-c5ccc(OC(C)C)cc5)oc4C)ccn3n2)cc1Cl,AC50,[1],"0.0251 µM [rising, full curve, poor fit]"
CS(=O)(=O)N1CCCC(C(=O)NCc2ccco2)C1 (stereo not given),AC50,[1],"1.58 µM [rising, partial curve]"
CCCCN(CC)CCCNC(=O)Cn1ncc2c3ccccc3n(Cc3ccccc3F)c2c1=O,AC50,[1],"25.1 µM [falling, single point]"
Cc1ccc(-c2n[nH]c3c2C(c2cccc(O)c2)N(c2ccc(C(=O)O)cc2)C3=O)cc1 (stereo not given),AC50,[1],"7.94 µM [falling, partial curve]"
O=C(Cn1nc(N2CCN(c3ccccc3)CC2)ccc1=O)Nc1ccc(F)cc1F,AC50,[1],"12.6 µM [falling, partial curve]"
COc1ccc(CNC(=O)C2CCCN(C(=O)N3CCOc4ccccc43)C2)cc1 (stereo not given),AC50,[1],"3.98 µM [rising, partial curve]"
O=C(CCCn1c(=O)c2ccccc2n(CC(=O)Nc2cccc(C(F)(F)F)c2)c1=O)NCc1ccc2c(c1)OCO2,AC50,[1],"10 µM [falling, partial curve]"
Cn1nnc2c(N3CCN(c4ccccc4)CC3)ncnc21,AC50,[1],"5.01 µM [rising, partial curve]"
COC(=O)c1ccc(CSc2ncnc3ccccc23)o1,AC50,[1],"31.6 µM [falling, single point]"
CCOc1ccc(N(CC)S(=O)(=O)N2CCCC(C(=O)Nc3cc(Cl)ccc3C)C2)cc1 (stereo not given),AC50,[1],"10 µM [falling, partial curve]"
Cc1ccc(Cl)cc1N1CCN(C(=O)C2CCN(S(=O)(=O)c3cccc4nonc34)CC2)CC1,AC50,[1],"2.51 µM [falling, partial curve, poor fit]"
Cc1ccccc1OC(=O)CSc1nnc(-c2ccc3c(c2)OCO3)o1,AC50,[1],"0.251 µM [rising, partial curve, poor fit]"
Cc1ccc(C(=O)Nc2ccc(S(=O)(=O)O)c3cc(S(=O)(=O)O)cc(S(=O)(=O)O)c23)cc1NC(=O)c1cccc(NC(=O)Nc2cccc(C(=O)Nc3cc(C(=O)Nc4ccc(S(=O)(=O)O)c5cc(S(=O)(=O)O)cc(S(=O)(=O)O)c45)ccc3C)c2)c1,AC50,[1],"3.98 µM [rising, full curve, poor fit]"
CN(Cc1ccc(F)cc1)S(=O)(=O)c1nnc(NC(=O)c2ccccc2Br)s1,AC50,[1],"39.8 µM [falling, single point]"
Cc1ccc(-n2nc3c(=O)n(CCCC(=O)NCc4ccccc4C)nc(C)c3c2C)cc1,AC50,[1],"10 µM [falling, partial curve]"
CC(C)C(=O)N1CCC(CN=Cc2c(O)n(C3CCCCC3)c(=O)n(C3CCCCC3)c2=O)CC1,AC50,[1],"12.6 µM [falling, partial curve]"
CCOc1cccc(C2c3[nH]c4ccccc4c3CCN2C(=O)c2ccccc2F)c1 (stereo not given),AC50,[1],"25.1 µM [falling, partial curve]"
CCC(Sc1nnc(C)n2c1cc1sccc12)C(=O)Nc1ccccc1F (stereo not given),AC50,[1],"25.1 µM [falling, partial curve]"
CCOC(=O)c1c(SCC(=O)Nc2nc3ccccc3s2)nc(=O)[nH]c1C,AC50,measured here: IkB-luc green channel,"0.2 µM [rising, full curve]"
same,AC50,measured here: control luc red channel,"0.398 µM [falling, full curve]"
CCCCC(=O)Oc1ccc2oc(-c3ccc(OC)cc3)cc(=O)c2c1,AC50,[1],"39.8 µM [falling, single point]"
CCCCCCCCCCCCCCCCCC(=O)O[C@H](CC(=O)O)C[N+](C)(C)C,AC50,[1],"7.94 µM [falling, full curve, poor fit] [measured here: IkB-luc green channel]"
CCn1c(SCC(=O)Nc2ccc(N3CCOCC3)c(Cl)c2)nnc1-c1ccc(N)cc1,AC50,[1],"20 µM [falling, partial curve]"
C=CCn1c(SCC(=O)c2ccc(O)c(O)c2)nnc1-c1ccccc1OC,AC50,[1],"7.94 µM [falling, partial curve]"
CCCc1cc(=O)[nH]c2nnc(SCC(=O)Nc3ccc(OC)cc3)n12,AC50,[1],"2 µM [rising, full curve]"
O=C(Nc1ccccc1C(=O)OCc1cc(=O)n2ccsc2n1)c1ccc(Cl)cc1,AC50,[1],"0.316 µM [falling, full curve]"
O=C(Nc1ccncc1)Nc1ccccn1,AC50,[1],"15.8 µM [falling, partial curve]"
COc1ccccc1CNC(=O)CCNS(=O)(=O)c1ccc2c(c1)CCCC(=O)N2,AC50,[1],"39.8 µM [falling, partial curve]"
Cc1ccc(Cl)cc1NC(=O)Nc1nnc(N2CCCC(C)C2)s1 (stereo not given),AC50,[1],"15.8 µM [falling, single point]"
Cc1cc(C)c2oc(C(=O)Nc3ccc(S(=O)(=O)N4CCC(C)CC4)cc3)cc(=O)c2c1,AC50,[1],"2.51 µM [rising, full curve]"

# Some of the entries so far, as tab-separated lines:
smiles	measurement	setting	value
CCOC(=O)c1c(SCC(=O)Nc2nc3ccccc3s2)nc(=O)[nH]c1C	AC50	measured here: control luc red channel	0.398 µM [falling, full curve]
CCCCC(=O)Oc1ccc2oc(-c3ccc(OC)cc3)cc(=O)c2c1	AC50	[1]	39.8 µM [falling, single point]

# — PubChem BioAssay AID445 (National Center for Advancing Translational Sciences (NCATS), 2006)
